Measurements reported in PubChem BioAssay AID1259308 (NCATS, 2017)
The deposit covers about 59,000 reagents; this is a random part of them. Of all reagents, about 1,510 (2.6%) are marked active. 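Calls use total luciferase alone and ignore viability, so some active siRNAs may act by altering cell number.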

Purpose: 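Genes whose loss raises luciferase production in HEK293 cells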 (primary screen)
Cells: human HEK293 embryonic kidney cells stably expressing firefly luciferase (HEK-CMV-Luc2-Hygro)
Reagents: single siRNA against human genes, 0.8 pmol siRNA per well
Timing: 72 h
Measurement: 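Reporter luminescence and viable-cell signal on separate replicate plates, given as percent of non-targeting control and median/MAD z-scores, plus per-cell luciferase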
Reading the numbers: total luciferase, z-score and total luciferase, % of control: higher = more reporter protein produced; luciferase per cell, z-score: higher = more reporter output per viable cell; viable cells, % of control: higher = more viable cells
Hit rule: 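Active when the median/MAD z-score for overall luciferase is greater than 3; a gene was taken forward for validation with new siRNAs if at least two of its three siRNAs passed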
Meaning of the calls: active = raised luciferase; inactive = no rise

target gene	PubChem SID	total luciferase, z-score	total luciferase, % of control	luciferase per cell, z-score	viable cells, % of control	Outcome
GRTP1 (growth hormone regulated TBC protein 1)	SID160749403	0.518	92.2	0.507	90.1	inactive
GRTP1 (growth hormone regulated TBC protein 1)	SID160749404	0.122	84.3	0.729	77.8	inactive
GRTP1 (growth hormone regulated TBC protein 1)	SID160749405	-2.4	34.1	-2.36	70.9	inactive
TMEM132C (transmembrane protein 132C)	SID160754249	2.25	127	3.15	61.7	inactive
TMEM132C (transmembrane protein 132C)	SID160754250	0.384	89.5	-0.186	105	inactive
TMEM132C (transmembrane protein 132C)	SID160754251	0.419	90.2	-0.0167	101	inactive
FST (follistatin)	SID160728498	0.372	89.3	0.357	90.8	inactive
FST (follistatin)	SID160728499	-0.697	68	-0.885	96	inactive
FST (follistatin)	SID160728500	-0.181	78.3	-0.592	102	inactive
UGT1A6 (UDP glucuronosyltransferase family 1 member A6)	SID160727922	-0.724	67.5	-1.31	106	inactive
UGT1A6 (UDP glucuronosyltransferase family 1 member A6)	SID160731458	0.222	86.3	-0.423	108	inactive
UGT1A6 (UDP glucuronosyltransferase family 1 member A6)	SID160741943	2.07	123	2.25	76	inactive
VRTN (vertebrae development associated)	SID160733593	0.445	90.7	-0.248	108	inactive
VRTN (vertebrae development associated)	SID160743310	0.589	93.6	0.293	96.8	inactive
VRTN (vertebrae development associated)	SID160743312	1.19	106	0.218	111	inactive
GPR62 (G protein-coupled receptor 62)	SID160755628	0.232	86.5	0.299	89.3	inactive
GPR62 (G protein-coupled receptor 62)	SID160755629	-0.0177	81.5	-0.349	99.9	inactive
GPR62 (G protein-coupled receptor 62)	SID160755630	0.162	85.1	-0.502	109	inactive
OR1L4 (olfactory receptor family 1 subfamily L member 4)	SID160762250	-1.04	61.1	-0.859	85.6	inactive
OR1L4 (olfactory receptor family 1 subfamily L member 4)	SID160762251	0.814	98.1	0.755	89.8	inactive
OR1L4 (olfactory receptor family 1 subfamily L member 4)	SID160762252	-1.06	60.7	-2.37	127	inactive
EHMT1 (euchromatic histone lysine methyltransferase 1)	SID160733807	-0.168	78.6	0.0197	87.3	inactive
EHMT1 (euchromatic histone lysine methyltransferase 1)	SID160749503	-0.41	73.7	-0.152	85.8	inactive
EHMT1 (euchromatic histone lysine methyltransferase 1)	SID160749504	2.91	140	1.9	94.7	inactive
EHMT1 (euchromatic histone lysine methyltransferase 1)	SID160749505	-0.947	63.1	0.0275	70	inactive
EHMT1 (euchromatic histone lysine methyltransferase 1)	SID160768811	0.463	91.1	0.0541	100	inactive
EHMT1 (euchromatic histone lysine methyltransferase 1)	SID160768812	-0.251	76.9	-0.285	92.6	inactive
ELL2 (elongation factor for RNA polymerase II 2)	SID160733870	1.85	119	2.43	70.1	inactive
ELL2 (elongation factor for RNA polymerase II 2)	SID160733880	-0.578	70.4	-0.797	97	inactive
ELL2 (elongation factor for RNA polymerase II 2)	SID160733891	-0.838	65.2	-0.83	90.7	inactive
ANKRD26P1 (ankyrin repeat domain 26 pseudogene 1)	SID160732397	-0.0283	81.3	-0.467	103	inactive
ANKRD26P1 (ankyrin repeat domain 26 pseudogene 1)	SID160756143	1.01	102	0.737	93.8	inactive
ANKRD26P1 (ankyrin repeat domain 26 pseudogene 1)	SID160756144	-0.821	65.5	0.0365	72.5	inactive
SLC2A5	SID160716817	1.26	107	0.601	102	inactive
SLC2A5	SID160716818	-1.89	44.3	-1.84	80.2	inactive
SLC2A5	SID160716819	-1.04	61.2	-0.718	82.6	inactive
COMTD1 (catechol-O-methyltransferase domain containing 1)	SID160724746	-1.43	53.5	-1.52	89.2	inactive
COMTD1 (catechol-O-methyltransferase domain containing 1)	SID160730561	0.147	84.8	-0.418	106	inactive
COMTD1 (catechol-O-methyltransferase domain containing 1)	SID160755680	-0.186	78.2	-0.516	100	inactive
ATOH7 (atonal bHLH transcription factor 7)	SID160761512	0.0655	83.2	-0.238	99	inactive
ATOH7 (atonal bHLH transcription factor 7)	SID160761513	0.621	94.2	0.522	91.8	inactive
ATOH7 (atonal bHLH transcription factor 7)	SID160761514	-0.217	77.6	-0.802	107	inactive
CYYR1 (cysteine and tyrosine rich 1)	SID160755356	1.38	109	1.41	84.4	inactive
CYYR1 (cysteine and tyrosine rich 1)	SID160755357	0.886	99.5	1.13	82.5	inactive
CYYR1 (cysteine and tyrosine rich 1)	SID160755358	0.337	88.6	-0.148	103	inactive
BEST2 (bestrophin 2)	SID160742269	0.555	92.9	0.394	93.6	inactive
BEST2 (bestrophin 2)	SID160742270	-0.101	79.9	-0.597	104	inactive
BEST2 (bestrophin 2)	SID160742271	1.18	105	0.397	106	inactive
BHLHA9 (basic helix-loop-helix family member a9)	SID160734247	-0.76	66.8	-0.801	92.1	inactive
BHLHA9 (basic helix-loop-helix family member a9)	SID160771244	0.733	96.5	1.15	79.6	inactive
BHLHA9 (basic helix-loop-helix family member a9)	SID160771245	0.546	92.7	0.838	83.1	inactive
ENTPD2 (ectonucleoside triphosphate diphosphohydrolase 2)	SID160732200	-1.05	61	1.31	48.3	inactive
ENTPD2 (ectonucleoside triphosphate diphosphohydrolase 2)	SID160739226	-0.754	66.9	-0.806	92.4	inactive
ENTPD2 (ectonucleoside triphosphate diphosphohydrolase 2)	SID160739237	-1.24	57.3	-2.16	113	inactive
TTC24 (tetratricopeptide repeat domain 24)	SID160760096	-1.51	51.8	-1.83	93.7	inactive
TTC24 (tetratricopeptide repeat domain 24)	SID160760097	-0.26	76.7	-0.57	99.6	inactive
TTC24 (tetratricopeptide repeat domain 24)	SID160760098	-0.0744	80.4	0.876	71.3	inactive
AHRR (aryl hydrocarbon receptor repressor)	SID160746092	-0.512	71.7	-0.684	95.9	inactive
AHRR (aryl hydrocarbon receptor repressor)	SID160746093	4.72	176	3.03	88.4	active
AHRR (aryl hydrocarbon receptor repressor)	SID160746094	-1.08	60.4	-0.861	84.7	inactive
SSR4P1 (signal sequence receptor subunit 4 pseudogene 1)	SID160727768	1.49	111	1.36	86.9	inactive
SSR4P1 (signal sequence receptor subunit 4 pseudogene 1)	SID160771417	0.572	93.3	1.22	75.6	inactive
SSR4P1 (signal sequence receptor subunit 4 pseudogene 1)	SID160771418	1.32	108	0.863	96.3	inactive
SSR4P1 (signal sequence receptor subunit 4 pseudogene 1)	SID160771419	-1.21	57.7	-0.664	76.8	inactive
SSR4P1 (signal sequence receptor subunit 4 pseudogene 1)	SID160774418	-0.86	64.8	-0.803	89.4	inactive
SSR4P1 (signal sequence receptor subunit 4 pseudogene 1)	SID160774419	-0.453	72.9	-0.352	89.3	inactive
WDR17 (WD repeat domain 17)	SID160755487	-0.433	73.3	-0.197	86.2	inactive
WDR17 (WD repeat domain 17)	SID160755488	1.2	106	1.04	89.9	inactive
WDR17 (WD repeat domain 17)	SID160755489	-0.762	66.7	-0.37	82.2	inactive
FXR2 (FMR1 autosomal homolog 2)	SID160722384	7.27	227	4.68	73.9	active
FXR2 (FMR1 autosomal homolog 2)	SID160722385	-1.37	54.5	-1.14	82.2	inactive
FXR2 (FMR1 autosomal homolog 2)	SID160722386	-0.0125	81.6	-0.0894	93.4	inactive
OR2U1P (olfactory receptor family 2 subfamily U member 1 pseudogene)	SID160768519	0.616	94.1	0.138	101	inactive
OR2U1P (olfactory receptor family 2 subfamily U member 1 pseudogene)	SID160768520	-0.85	65	-0.887	91.7	inactive
OR2U1P (olfactory receptor family 2 subfamily U member 1 pseudogene)	SID160768521	0.483	91.5	-0.222	108	inactive

Entries above called active, once more:
target gene	PubChem SID	total luciferase, z-score	total luciferase, % of control	luciferase per cell, z-score	viable cells, % of control	Outcome
AHRR (aryl hydrocarbon receptor repressor)	SID160746093	4.72	176	3.03	88.4	active
FXR2 (FMR1 autosomal homolog 2)	SID160722384	7.27	227	4.68	73.9	active
